Experimental findings from PubChem BioAssay AID1347423 (Functional Genomics Laboratory (NCATS/FGL), 2020) are described below.

Hit rate of the full screen: of about 52,000 sequences, about 210 (0.4%) were called active.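 How the source made its calls: active means gene whose silencing raises cell survival under the drug, median off-target-corrected z-score across its silencing RNAs 2 or more; inactive means the rest.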 The list shows a part of the results.

The test is described as follows: Resistance to Poly (ADP-Ribose) Polymerase inhibitor: Gene Identification via Genome-wide siRNA Screen. Particulars: mouse BRCA2 R2336H ES cells, olaparib, CellTiter-Glo viability; stronger effect = higher value. Summed up:
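Mouse BRCA2 R2336H ES cells were reverse-transfected with siRNA (20 nM final), treated at 48 h with 500 nM olaparib, and read by CellTiter-Glo after 72 h. Scores: MAD-based z per siRNA, median per gene, seed off-target correction.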
In general terms: ATP-based viability assays read luminescence as a measure of living cells.
For the sequence “GGCUAGCAUCACAUGACUUTT against 4930438D12Rik”, the z-score was inactive: -0.972.
As for GGAAGAAGAAAGAUUCAAATT against Bcan, the figure is inactive: 0.264.
Regarding GGCUAUGCAUACAUAUAAATT against Slc24a2, the z-score is inactive: 0.00313.
As for GGGAGGACAGGUUCCUUAATT against Ndufa9, the z-score is inactive: -0.582.
As for GGAAUUUUAACACCUUUAGTT against Twist1, the figure is inactive: -0.643; as for “GCCUGAUUUUACUUAAAAGTT against E130307C13”, inactive: 0.85; as for GGAAAUUGUGGACAUGAUCTT against Sult1c1, inactive: -0.561.
Then GGAAGAAGAGUUCAAAGAATT against Srrm2, with inactive: 2.33.
For the sequence GGCCAAGAAUGAGCCAGUATT against Lrp1, the z-score is inactive: 1.57.
As for GGAUACAAGAUACCAUUGATT against Slc27a2, the figure is inactive: -1.5; as for GGAGAUUGAUGAGCAUGCCTT against Rab40b, inactive: 0.456.
Then GGUGGACGAUUGAAAGUGATT against Lbx2h, with inactive: -0.413; and GCAUGGACAGUUAUGUAUATT against Slc5a6, with inactive: 0.33; and GCCACUCGAUAAUGAGUGGTT against BC025546, with inactive: 0.733.
As for GCUUCCAGUCAGUGGUUACTT against Rara, the figure is inactive: -0.607.
As to GGAAAAAGCAAUCAGACACTT against Pdcd7, the z-score is inactive: 0.48.
As for “GCCUAAGAACAUGCUUUACTT against 1700023B02Rik”, the figure is inactive: -0.159; as for CUUGGUGACAGACAAUGUCTT against H2-D1, inactive: 0.399; as for “GGAAUUUAAAUUAUCCCUGTT against 1110033F04Rik”, inactive: -0.984.
Then CGUGAUGCUGUAAAUAGUUTT against AI606181, with inactive: 0.28; and GGUACCAUCAGAACCUGUCTT against Pop5, with inactive: -0.14.
Take GGUGCAUCACUUCAUGGAATT against Timm8b: the z-score is inactive: 1.58.
Then GGUCUUGGGUAUUGUCGUGTT against Gpr56, with inactive: 0.00956; and CCAGCAUUAUCCAUAUCAATT against Nat2, with inactive: -0.0274.
Then CCAGAUUGUUGUGGAAGUATT against Zfy1, with inactive: -0.754; and CGUCUAGGAAGGAAACAGGTT against Stk32a, with inactive: -0.987.
In the case of GGUCUUUGCUGUGCACUUUTT against Olfr1214, the z-score was inactive: -0.904.
Turning to CCCAGUGACUAAUGGAUAUTT against Dsg1b, the z-score was inactive: 0.217.
In the case of “GGGACUUCUGAUUAAAUUUTT against A030013N09Rik”, the z-score is inactive: 0.164.
As for GGCGAAAUGGUAAACCGAGTT against Gpr64, the z-score is inactive: 1.75.
As for GGCUCUAUGUCUUUGGAGGTT against Klhdc1, the figure is inactive: 0.309; as for GGUGGUUGAGGAAUGUAAGTT against Kifap3, inactive: -1.23.
Then GCAAGCCCUGGAAGAAUUATT against Cml4, with inactive: 2.75.
As for “GGGUCACUUUAUGCAUCUUTT against B930006L02Rik”, the figure is inactive: -2.05; as for GGACCUUCGUGAGAAUUUCTT against Mst1, inactive: 1.38.
Consider GGAAGAGCGAGAGACCUUGTT against Tcf1, for which the z-score was inactive: -0.981.
For GGAGAGUUCAGACAAGGCATT against Irx2, the z-score was inactive: 1.42.
As for CCUCAGUUUUGCAUAUUAUTT against BC030335, the figure is inactive: -0.364.
CCAUUUCUUUCAGUGGCUGTT against Olfr48: the z-score was inactive: 0.827.
Then GCAAAUCGAUAUCAAACACTT against Slc30a1, with inactive: 0.0693.
Turning to “GGAACUUCAUUGAACUAUGTT against 4732479N06Rik”, the z-score is inactive: 1.11.
As for GGUCGAUCACGUCAUCGAATT against Unc5a, the figure is inactive: 0.93; as for GCCUGAUCUCUUCCCAUCATT against Plunc, inactive: 0.158.
Then “GGACUUCUACAUUGAACUUTT against 2410080H04Rik”, with inactive: 0.582.
As for GCACGGUGUGUACAACCCUTT against Mdh2, the z-score is inactive: 0.236.
Regarding GCUACCACAGGAUAUCCUUTT against Mcf2, the z-score was inactive: 0.4.
Then GGAAGCUACAGCAACAUAATT against Acvrinp1, with inactive: -0.381.
“GGAGAAAGUCUCUCUUAGUTT against D11Ertd461e”: the z-score was inactive: -1.15.
Then GGGAAGAAGUUUAAAAGAATT against Rdh11, with inactive: -1.14; and GACAGAAUGCCAUUUCCUATT against Olfr902, with inactive: 0.82.
As for “GGCCAAUCCACGAAAGCAUTT against 6330569M22Rik”, the figure is inactive: -0.85.
Then “GCCAGAUGGUAGGCGAUUATT against 5430432N15Rik”, with inactive: -0.571; and GGAGCAGAAUCCUUAUCGATT against Trpv5, with inactive: 0.231.
GGUUGCAGAUUUCCGAAGATT against D5Ertd40e: the z-score was inactive: -0.0765.
As for GGGUACAGUCCGAUACAGUTT against AK129375, the figure is inactive: -1.89; as for GGAGAAAUCGAUUCCCAUUTT against Olfr1132, inactive: 1.03; as for GGUCAUUCCCAUUAAACAGTT against Noc4, inactive: 0.321.
On to GCUUGUUGGUGGUCUCCUGTT against Ecg2, for which the z-score is inactive: -2.2.
As for GGUACACCACGAAUGCACUTT against Epha1, the figure is inactive: 0.207.
As for “GGCGCACACUUUCACCUAATT against 9030409E16Rik”, the figure is inactive: -0.974.
Regarding GGUUCUAGGCAGUUUGAUATT against Mesdc1, the z-score was inactive: 0.0476.
As for GGAAGUGGUGGACAAAGUGTT against S100b, the figure is inactive: -1.18.
Then “GGAUGUGACUAAAGUCAACTT against 1600029D21Rik”, with inactive: 2.32; and GGAUGUGCGGAAGUUCAAATT against Centb5, with inactive: 0.167.
With GGGUUUUUAAGUUCACUGATT against St7l, the z-score was inactive: 0.0114.
For the sequence GGCAUGAUAACUUGAAAUGTT against Dnahc11, the z-score is inactive: 0.513.
Turning to GCGAUUGUCAUUCUCUUUUTT against Jak3, the z-score was inactive: 0.668.
Turning to CCUUGUAAUGUGAUUCUGGTT against Ctsr, the z-score was inactive: 0.991.
As to CAUUGGUGACAAUAAGUAUTT against Ssx9, the z-score was inactive: 0.26.
Take GGACACCGGGAUGUGCAAATT against Pglyrp1: the z-score is inactive: 1.22.
Then GGUUCAAGUGCAUUGCUUCTT against Rab34, with inactive: -0.413.
Take GGUCUUCCUAAGAGAGACATT against Ostb: the z-score was inactive: 2.94.
For the sequence GGACAUCUCUACAAAUUACTT against Tra1, the z-score is inactive: 0.87.
GGCCUAAGAAAACUCCAGCTT against Usmg5: the z-score is inactive: -0.17.
Then GCAGAACCGCAUCAUAUUCTT against Ucn, with inactive: 0.73; and GGUGGAUGAAACUCAGUUUTT against Aldh2, with inactive: -0.493.
Then GGGUAACAUGAAAGUGAUCTT against Mybbp1a, with inactive: 1.67; and GCCCAAGGAUGAACUGCAGTT against Olfr108, with inactive: -1.41; and GGAUGAGACCAUCUGCCAATT against Adra1a, with inactive: 0.27.
Then “GGUGGUGCCAAGAUGUUGUTT against 1100001A21Rik”, with inactive: 0.607; and GAGUCAUUACACCAGACAGTT against LOC433384, with inactive: -1.82; and “GGUCUGUUAUGCAGAAUGCTT against 4922503N01Rik”, with inactive: 0.104.
For the sequence GUGUCCUGAACACAGCCACTT against Olfr638, the z-score was inactive: 0.682.
On to “GGAAUUCCUCCUAUGUUCATT against E430034L04Rik”, for which the z-score was inactive: -0.0851.
As for GGCUUUCCAGAAGACAGAATT against Cyp2s1, the figure is inactive: 0.449; as for “GGAAAGGAUACUAUGAGGATT against 1700031F13Rik”, inactive: 1.02.
As for “GGAAUUGAAGGGUACUUAATT against 4632417K18Rik”, the figure is inactive: 0.699; as for GCUGAGAGACUUGUGAAAUTT against Np15, inactive: -0.619.
With GGAGUGACAGUUUUUAUUCTT against Hoxd10, the z-score is inactive: 0.0365.
GGAUUUUUACAGAGACAUGTT against Actr6: the z-score is inactive: 0.674.
Then CCGUGUGAUCAAUGUGAAUTT against Casq1, with inactive: 0.876; and “GGAGAAAGCUUGUGUGGUGTT against 2810405K02Rik”, with inactive: 0.0334.
As to CCAAUAACUCGAAACUGGCTT against Cdc16, the z-score is inactive: 0.178.
In the case of GGAGUGUGUAAAGACAUAATT against Ear11, the z-score was inactive: -0.851.
As for GGAGAAAUUAGGAUUACCATT against Pcdhac2, the figure is inactive: -0.503; as for CCUGCUUACGUACAAGACCTT against Tekt1, inactive: 0.888.
As for UCCUUGCUGUCCUAACCAUTT against Gpr119, the figure is inactive: -0.623; as for GGCAGAAAGUGAAGAGUUGTT against Kazald1, inactive: 0.64.
As for UUACUGGUUGCUGUUGUGGTT against Thoc4, the figure is inactive: -1.44; as for GGUUGAAGUCACAAAAGAATT against Prkg1, inactive: 0.288.
Consider GCCUAUCCGACAACUUAGUTT against Slc25a17, for which the z-score was inactive: -0.427.
Take “GGACCAUCACACACAUUGATT against 1110025G12Rik”: the z-score is inactive: -0.547.
Then GGACGAGGUGGAAAAGUAUTT against Tpm2, with inactive: -1.5.
For GGAGAGAGUGCAUCUAUAATT against Gdi3, the z-score is inactive: -0.251.
